{
  "source": "patent US20130189690A1",
  "about": "“SCN5A Splice Variants for Use in Methods Relating to Sudden Cardiac Death and Need for Implanted Cardiac Defibrillators” (The United States Government as represented by the …, priority 2011, published 2013)",
  "key": {"[1]": {"tested_on": "NF-kappaB (nuclear extract of H9c2 cells, AngII-, H2O2- or TNF-alpha-treated) (Rattus norvegicus)", "experiment": "competition with a labelled probe", "conditions": "unlabeled mutant probe did not inhibit AngII-induced binding; protein in an extract; variant of scn5a promoter NF-kappaB probe"}, "[2]": {"tested_on": "NF-kappaB (nuclear extract of H9c2 cells, AngII-, H2O2- or TNF-alpha-treated) (Rattus norvegicus)", "experiment": "EMSA", "conditions": "30 ug nuclear extract, on ice; binding induced by AngII or H2O2, blocked by CAPE, competed by 200-fold unlabeled probe; protein in an extract; label: biotin 3' end (biotin-N4-CTP)"}},
  "note": "For at least one entry, the source does not settle the construct or the ends of the probe. Results from cells or extracts need not show a direct contact. For some assays here: Negatives hold for the conditions tested.",
  "data": [
    {"sequence": "GGTGCTGCACTCAGGCCATCCCTATGAGATCCTC (double strand) [scn5a promoter NF-kappaB mutant probe]", "values": [
      {"measurement": "binding result", "setting": "[1]", "result": "no binding"}
    ]},
    {"sequence": "GGTGCTGCACTCAGGGGATCCCTATGAGATCCTC (double strand) [scn5a promoter NF-kappaB probe]", "values": [
      {"measurement": "binding result", "setting": "[2]", "result": "binds"}
    ]}
  ]
}
